Data from EP1020519A1, “Minor histocompatibility antigens and their use in the diagnosis and treatment of tumors” (Introgene B.V., priority 1999, dated 2000).
Part of at least one peptide drawing is inferred or uncertain, most often the ends. Ends that are not written are not given here.

What was measured:
[1] = system: CTL clone MP1; assay: Chromium release assay, peptide recognition by CTL clone MP1; assay type: cell-based, human; conditions: for recognition (lysis) by CTL MP1: peptide loaded on HB-1-negative HLA-B44-positive target cells, 5 µM peptide (Fig. 3A); for lysis / recognition by CTL MP1 of EBV-transformed B cells incubated with peptide: HLA-B44-positive target cells, E:T 10:1 (Fig. 8B)
[2] = system: HLA-B44-restricted EBNA3C specific CTL; assay: Chromium release assay, peptide recognition by EBNA3C specific CTL; assay type: cell-based, human; conditions: HLA-B44-positive target cells incubated with peptide (Fig. 3B)

Row | Sequence | recognition (lysis) by CTL MP1 [1] | recognition (lysis) by EBNA3C specific CTL [2] | lysis by CTL MP1 of peptide-loaded PHA-stimulated T cell blasts ([1]; PHA-stimulated T cell blasts of HLA-B44, HB-1-positive individuals, E:T 3:1 (Fig. 6)) | lysis / recognition by CTL MP1 of EBV-transformed B cells incubated with peptide [1] | lysis / recognition by CTL MP1 of EBV-transformed B cells incubated with peptide ([1]; listed as peptide encoded by the HB-1^Y allele)
1 | EEKRGSLHV [EEKRGSLHV] | did not recognise | – | – | – | –
2 | EEKRGSLHVW [EEKRGSLHVW] | specifically recognised | not by HLA-B44-restricted EBNA3C specific CTL | lysis that is as high as the killing of the HB-1-positive EBV-LCL | – | –
3 | EEKRGSLYVW [HB-1^Y peptide, EEKRGSLYVW] | – | – | – | not recognised | not lysed
